From PMC10286367
No constants are given. Whether binding was seen depends on the method and setting. Binding seen in cells or lysates may run through a third protein. Some results given as binding are weak or reduced against the parent protein; the word gives no strength.

The chains behind the UniProt entries cited, without tags or fusion partners.
UniProt Q04207: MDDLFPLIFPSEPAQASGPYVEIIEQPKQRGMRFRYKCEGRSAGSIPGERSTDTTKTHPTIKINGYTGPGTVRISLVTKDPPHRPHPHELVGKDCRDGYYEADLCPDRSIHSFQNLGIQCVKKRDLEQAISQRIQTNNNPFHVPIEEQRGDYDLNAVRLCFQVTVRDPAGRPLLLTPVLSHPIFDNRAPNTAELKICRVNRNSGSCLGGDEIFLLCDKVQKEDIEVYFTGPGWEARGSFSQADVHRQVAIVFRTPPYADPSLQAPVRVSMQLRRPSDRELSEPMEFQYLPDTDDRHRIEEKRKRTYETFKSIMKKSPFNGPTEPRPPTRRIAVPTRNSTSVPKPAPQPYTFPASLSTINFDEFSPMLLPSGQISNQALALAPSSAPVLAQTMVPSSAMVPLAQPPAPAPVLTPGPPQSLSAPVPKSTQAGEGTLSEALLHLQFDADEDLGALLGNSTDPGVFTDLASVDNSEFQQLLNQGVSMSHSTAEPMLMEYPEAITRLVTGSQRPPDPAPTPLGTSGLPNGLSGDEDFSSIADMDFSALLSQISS

Columns and labels:
[1] = target: NF-κB p65 (mouse (endogenous in primary astrocytes and hippocampal tissue)) (UniProt Q04207); test: co-IP; IP followed by WB with hippocampal tissues of Ctrl and Ogt cKO mice, and of Ctrl and AD (5XFAD) mice
[2] = target: NF-κB p65 (mouse (endogenous in primary astrocytes and hippocampal tissue)) (UniProt Q04207); test: co-IP; endogenous reciprocal IP-WB in cultured primary mouse astrocytes; cells crosslinked with 1% formaldehyde for 10 min, lysed with IP Lysis Buffer (50 mM Tris-HCl, 0.5% Triton-X, 150 mM KCl, 1 mM EDTA); Protein A agarose beads, 4 °C

B1: O-GlcNAc transferase (Ogt) (enzyme, UniProt Q8CGY8 1-1046)
chain: MASSVGNVADSTEPTKRMLSFQGLAELAHREYQAGDFEAAERHCMQLWRQEPDNTGVLLLLSSIHFQCRRLDRSAHFSTLAIKQNPLLAEAYSNLGNVYKERGQLQEAIEHYRHALRLKPDFIDGYINLAAALVAAGDMEGAVQAYVSALQYNPDLYCVRSDLGNLLKALGRLEEAKACYLKAIETQPNFAVAWSNLGCVFNAQGEIWLAIHHFEKAVTLDPNFLDAYINLGNVLKEARIFDRAVAAYLRALSLSPNHAVVHGNLACVYYEQGLIDLAIDTYRRAIELQPHFPDAYCNLANALKEKGSVAEAEDCYNTALRLCPTHADSLNNLANIKREQGNIEEAVRLYRKALEVFPEFAAAHSNLASVLQQQGKLQEALMHYKEAIRISPTFADAYSNMGNTLKEMQDVQGALQCYTRAIQINPAFADAHSNLASIHKDSGNIPEAIASYRTALKLKPDFPDAYCNLAHCLQIVCDWTDYDERMKKLVSIVAEQLEKNRLPSVHPHHSMLYPLSHGFRKAIAERHGNLCLDKINVLHKPPYEHPKDLKLSDGRLRVGYVSSDFGNHPTSHLMQSIPGMHNPDKFEVFCYALSPDDGTNFRVKVMAEANHFIDLSQIPCNGKAADRIHQDGIHILVNMNGYTKGARNELFALRPAPIQAMWLGYPGTSGALFMDYIITDQETSPAEVAEQYSEKLAYMPHTFFIGDHANMFPHLKKKAVIDFKSNGHIYDNRIVLNGIDLKAFLDSLPDVKIVKMKCPDGGDNPDSSNTALNMPVIPMNTIAEAVIEMINRGQIQITINGFSISNGLATTQINNKAATGEEVPRTIIVTTRSQYGLPEDAIVYCNFNQLYKIDPSTLQMWANILKRVPNSVLWLLRFPAVGEPNIQQYAQNMGLPQNRIIFSPVAPKEEHVRRGQLADVCLDTPLCNGHTTGMDVLWAGTPMVTMPGETLASRVAASQLTCLGCLELIAKSRQEYEDIAVKLGTDLEYLKKIRGKVWKQRISSPLFNTKQYTMELERLYLQMWEHYAAGNKPDHMIKPVEVTESA
[1]
  binding: binds
[2]
  binding: binds
